Reference: patent US20020169364A1, “Brainstem and limbic disorder (BALD)” (priority 2000, published 2002)
For at least one compound, name, drawing or mass did not settle the structure.

Assay: Clinical use in treatment protocol of the BALD syndrome
Format: in vivo
Conditions: patients with BALD syndrome; core treatment steps (calcium channel blocker, anti-viral/anti-fungal, chelating agent)
Excerpt: The treatment protocol consists of ruling in or out of the BALD syndrome then treatment of the core pathology of the syndrome if present. This consists of treatment of the most acute aspects of the BALD syndrome followed by more conservative treatments of the more chronic symptoms or pathology. If diagnosis progresses to brainstem or other neuron damage with significant inflammation the treatment consists of immediate inflammation reduction and stabilization of the immune system. This is followed by conservative treatments as indicated in the diagnosis of the disorder.
The treatment proceeds in steps.
Step one in the treatment of the disorder would start with drugs that are known to block calcium intake channels of neurons. […] The usual dosage can be 30 mg. three times daily more or less in the clinical judgment of the physician.
Step three in the treatment of a BALD syndrome involving viral infection to any degree is to administer anti-viral and anti-fungal drugs to the patient. […] This is a synthetic acyclic purine nucleoside analog.
This Is a synthetic broad spectrum bis-trazole antifungal agent. […] This is a synthetic trazole antifungal agent with the chemical name of itraconazole.
Step seven is to administer a chelating agent to the patient to eliminate toxic heavy metals from the system.
Azulfadine should be started for patients with irritable bowel syndrome.

With `COCCOC(=O)C1=C(C)NC(C)=C(C(=O)OC(C)C)C1c1cccc([N+](=O)[O-])c1` (stereo not shown) [Nimotop, nimodipine] as the compound, how does the “clinical outcome in treatment of the BALD syndrome” value read?
Its value is “used successfully clinically”.
